{"sequences": {"note": "Amino acid sequences for entries named in this document (tags omitted). A change or cut given only in a name is not applied to a line headed by its entry.", "UniProt Q9NW64": "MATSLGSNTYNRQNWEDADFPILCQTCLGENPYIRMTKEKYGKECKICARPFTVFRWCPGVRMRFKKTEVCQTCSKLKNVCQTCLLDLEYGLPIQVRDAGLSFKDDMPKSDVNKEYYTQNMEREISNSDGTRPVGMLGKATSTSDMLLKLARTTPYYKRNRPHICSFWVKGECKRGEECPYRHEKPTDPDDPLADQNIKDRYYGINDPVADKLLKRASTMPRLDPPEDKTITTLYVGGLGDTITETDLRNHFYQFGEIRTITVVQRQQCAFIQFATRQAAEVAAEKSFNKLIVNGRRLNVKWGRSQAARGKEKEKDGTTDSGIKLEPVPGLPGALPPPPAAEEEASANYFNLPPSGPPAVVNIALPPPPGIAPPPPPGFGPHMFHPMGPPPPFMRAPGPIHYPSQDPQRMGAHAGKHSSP", "UniProt Q9UJF2": "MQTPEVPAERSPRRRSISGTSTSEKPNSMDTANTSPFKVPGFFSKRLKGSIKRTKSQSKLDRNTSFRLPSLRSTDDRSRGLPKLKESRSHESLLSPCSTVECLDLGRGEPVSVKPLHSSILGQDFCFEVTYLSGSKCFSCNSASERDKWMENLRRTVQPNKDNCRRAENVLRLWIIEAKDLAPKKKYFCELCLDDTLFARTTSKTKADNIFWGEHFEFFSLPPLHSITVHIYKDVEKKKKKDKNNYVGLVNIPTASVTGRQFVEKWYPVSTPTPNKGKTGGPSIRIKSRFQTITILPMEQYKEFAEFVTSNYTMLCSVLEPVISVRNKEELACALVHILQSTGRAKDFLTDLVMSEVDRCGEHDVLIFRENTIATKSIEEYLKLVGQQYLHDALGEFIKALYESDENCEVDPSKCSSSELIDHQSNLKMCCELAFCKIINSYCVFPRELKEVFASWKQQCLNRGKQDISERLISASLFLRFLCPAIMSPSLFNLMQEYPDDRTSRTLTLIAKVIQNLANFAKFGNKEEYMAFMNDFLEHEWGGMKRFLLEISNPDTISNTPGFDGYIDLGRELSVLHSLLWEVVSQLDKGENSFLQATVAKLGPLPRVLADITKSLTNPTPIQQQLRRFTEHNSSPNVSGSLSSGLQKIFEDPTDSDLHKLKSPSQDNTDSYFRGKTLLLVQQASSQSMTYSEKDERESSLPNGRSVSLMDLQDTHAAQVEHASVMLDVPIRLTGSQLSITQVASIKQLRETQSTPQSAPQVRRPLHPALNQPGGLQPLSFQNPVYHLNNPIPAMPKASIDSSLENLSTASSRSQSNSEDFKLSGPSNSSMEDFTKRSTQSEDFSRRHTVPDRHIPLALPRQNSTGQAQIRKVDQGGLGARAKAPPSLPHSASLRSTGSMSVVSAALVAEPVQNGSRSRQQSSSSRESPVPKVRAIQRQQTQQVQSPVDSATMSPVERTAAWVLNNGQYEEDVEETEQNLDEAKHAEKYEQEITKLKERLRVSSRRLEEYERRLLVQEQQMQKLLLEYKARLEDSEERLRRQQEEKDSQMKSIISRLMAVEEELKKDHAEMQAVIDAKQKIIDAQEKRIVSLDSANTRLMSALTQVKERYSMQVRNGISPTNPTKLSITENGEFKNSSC", "UniProt P49792, whole entry, looked up": "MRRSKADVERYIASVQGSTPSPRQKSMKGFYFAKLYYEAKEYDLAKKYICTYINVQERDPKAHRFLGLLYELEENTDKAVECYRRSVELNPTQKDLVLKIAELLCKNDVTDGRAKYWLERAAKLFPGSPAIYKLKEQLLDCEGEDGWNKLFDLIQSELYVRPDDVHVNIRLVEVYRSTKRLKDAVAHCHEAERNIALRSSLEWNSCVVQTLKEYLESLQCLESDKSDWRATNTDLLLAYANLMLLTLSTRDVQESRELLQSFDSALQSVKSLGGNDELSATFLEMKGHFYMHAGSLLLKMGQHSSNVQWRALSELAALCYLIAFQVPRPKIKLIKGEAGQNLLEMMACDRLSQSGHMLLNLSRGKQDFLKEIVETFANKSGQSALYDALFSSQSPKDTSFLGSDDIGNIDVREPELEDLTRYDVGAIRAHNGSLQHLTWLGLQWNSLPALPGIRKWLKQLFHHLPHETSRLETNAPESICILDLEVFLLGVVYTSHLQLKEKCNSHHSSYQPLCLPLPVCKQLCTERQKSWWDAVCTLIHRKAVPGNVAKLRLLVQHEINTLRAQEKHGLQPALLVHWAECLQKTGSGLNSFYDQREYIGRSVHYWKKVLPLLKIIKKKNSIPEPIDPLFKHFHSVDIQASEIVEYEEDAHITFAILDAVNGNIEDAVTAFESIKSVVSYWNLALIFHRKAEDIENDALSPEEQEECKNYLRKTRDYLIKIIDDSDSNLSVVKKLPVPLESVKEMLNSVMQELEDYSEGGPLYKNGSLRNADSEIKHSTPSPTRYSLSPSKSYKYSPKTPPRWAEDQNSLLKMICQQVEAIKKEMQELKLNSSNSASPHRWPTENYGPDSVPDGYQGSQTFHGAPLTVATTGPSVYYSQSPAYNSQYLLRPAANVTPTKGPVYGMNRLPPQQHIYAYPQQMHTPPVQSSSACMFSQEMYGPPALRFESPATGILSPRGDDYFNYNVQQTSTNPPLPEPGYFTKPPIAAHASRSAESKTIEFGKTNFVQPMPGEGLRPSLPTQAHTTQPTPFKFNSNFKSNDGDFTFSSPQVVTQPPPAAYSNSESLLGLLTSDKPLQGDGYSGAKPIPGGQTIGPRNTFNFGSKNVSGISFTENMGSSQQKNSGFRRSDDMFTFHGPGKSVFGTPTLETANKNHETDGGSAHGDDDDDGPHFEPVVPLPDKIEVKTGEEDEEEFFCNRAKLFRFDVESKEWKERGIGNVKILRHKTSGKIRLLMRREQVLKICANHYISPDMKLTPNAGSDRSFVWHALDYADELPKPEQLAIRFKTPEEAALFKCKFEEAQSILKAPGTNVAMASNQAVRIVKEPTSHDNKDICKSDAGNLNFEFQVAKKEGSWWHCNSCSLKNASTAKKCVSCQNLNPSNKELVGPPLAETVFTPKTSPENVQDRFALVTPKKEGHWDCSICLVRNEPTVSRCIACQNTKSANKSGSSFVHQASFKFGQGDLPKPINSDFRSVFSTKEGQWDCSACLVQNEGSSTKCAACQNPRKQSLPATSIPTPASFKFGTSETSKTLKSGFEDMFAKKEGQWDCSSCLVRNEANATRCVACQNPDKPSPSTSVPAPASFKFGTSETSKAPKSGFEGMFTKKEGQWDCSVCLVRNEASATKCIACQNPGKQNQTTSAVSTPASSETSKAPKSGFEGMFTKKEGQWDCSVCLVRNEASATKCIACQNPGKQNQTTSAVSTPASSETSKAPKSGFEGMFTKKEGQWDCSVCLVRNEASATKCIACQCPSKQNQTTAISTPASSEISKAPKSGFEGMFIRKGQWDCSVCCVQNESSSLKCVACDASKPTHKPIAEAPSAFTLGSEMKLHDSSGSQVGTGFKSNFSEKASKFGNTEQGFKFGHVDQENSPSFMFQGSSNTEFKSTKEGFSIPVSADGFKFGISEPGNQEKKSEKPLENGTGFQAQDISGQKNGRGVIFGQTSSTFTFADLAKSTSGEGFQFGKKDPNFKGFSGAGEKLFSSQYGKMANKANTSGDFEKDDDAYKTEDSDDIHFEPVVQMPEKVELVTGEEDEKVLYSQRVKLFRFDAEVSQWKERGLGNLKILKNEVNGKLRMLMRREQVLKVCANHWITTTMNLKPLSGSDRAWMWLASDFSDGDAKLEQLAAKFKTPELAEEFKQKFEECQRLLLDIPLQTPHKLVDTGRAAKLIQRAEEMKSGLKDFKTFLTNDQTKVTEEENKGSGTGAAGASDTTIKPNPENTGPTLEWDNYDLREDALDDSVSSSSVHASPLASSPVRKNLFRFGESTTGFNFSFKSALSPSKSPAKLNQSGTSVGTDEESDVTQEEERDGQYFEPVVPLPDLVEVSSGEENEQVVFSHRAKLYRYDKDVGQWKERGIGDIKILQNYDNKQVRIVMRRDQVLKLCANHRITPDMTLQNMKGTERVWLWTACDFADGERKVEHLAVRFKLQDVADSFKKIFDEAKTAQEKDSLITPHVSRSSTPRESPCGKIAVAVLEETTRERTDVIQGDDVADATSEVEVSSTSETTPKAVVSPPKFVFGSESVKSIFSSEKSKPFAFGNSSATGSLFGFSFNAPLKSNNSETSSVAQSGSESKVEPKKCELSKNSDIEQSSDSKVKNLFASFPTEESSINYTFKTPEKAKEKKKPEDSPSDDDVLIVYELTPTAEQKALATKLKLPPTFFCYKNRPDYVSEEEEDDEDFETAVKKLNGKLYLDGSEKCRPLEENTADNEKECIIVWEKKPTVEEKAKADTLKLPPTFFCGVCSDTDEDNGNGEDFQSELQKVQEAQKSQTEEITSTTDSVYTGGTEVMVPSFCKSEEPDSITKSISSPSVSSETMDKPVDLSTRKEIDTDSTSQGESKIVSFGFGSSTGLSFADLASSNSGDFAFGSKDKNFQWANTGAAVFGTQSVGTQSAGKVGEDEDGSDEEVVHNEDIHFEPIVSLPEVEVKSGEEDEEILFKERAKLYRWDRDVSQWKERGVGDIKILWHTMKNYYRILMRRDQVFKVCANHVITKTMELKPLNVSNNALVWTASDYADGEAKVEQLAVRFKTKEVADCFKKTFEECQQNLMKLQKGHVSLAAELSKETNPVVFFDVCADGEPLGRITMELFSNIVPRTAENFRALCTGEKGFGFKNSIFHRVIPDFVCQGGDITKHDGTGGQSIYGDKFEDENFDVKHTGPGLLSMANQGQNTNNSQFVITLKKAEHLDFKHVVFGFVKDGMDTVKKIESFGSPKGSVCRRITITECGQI", "UniProt P06400": "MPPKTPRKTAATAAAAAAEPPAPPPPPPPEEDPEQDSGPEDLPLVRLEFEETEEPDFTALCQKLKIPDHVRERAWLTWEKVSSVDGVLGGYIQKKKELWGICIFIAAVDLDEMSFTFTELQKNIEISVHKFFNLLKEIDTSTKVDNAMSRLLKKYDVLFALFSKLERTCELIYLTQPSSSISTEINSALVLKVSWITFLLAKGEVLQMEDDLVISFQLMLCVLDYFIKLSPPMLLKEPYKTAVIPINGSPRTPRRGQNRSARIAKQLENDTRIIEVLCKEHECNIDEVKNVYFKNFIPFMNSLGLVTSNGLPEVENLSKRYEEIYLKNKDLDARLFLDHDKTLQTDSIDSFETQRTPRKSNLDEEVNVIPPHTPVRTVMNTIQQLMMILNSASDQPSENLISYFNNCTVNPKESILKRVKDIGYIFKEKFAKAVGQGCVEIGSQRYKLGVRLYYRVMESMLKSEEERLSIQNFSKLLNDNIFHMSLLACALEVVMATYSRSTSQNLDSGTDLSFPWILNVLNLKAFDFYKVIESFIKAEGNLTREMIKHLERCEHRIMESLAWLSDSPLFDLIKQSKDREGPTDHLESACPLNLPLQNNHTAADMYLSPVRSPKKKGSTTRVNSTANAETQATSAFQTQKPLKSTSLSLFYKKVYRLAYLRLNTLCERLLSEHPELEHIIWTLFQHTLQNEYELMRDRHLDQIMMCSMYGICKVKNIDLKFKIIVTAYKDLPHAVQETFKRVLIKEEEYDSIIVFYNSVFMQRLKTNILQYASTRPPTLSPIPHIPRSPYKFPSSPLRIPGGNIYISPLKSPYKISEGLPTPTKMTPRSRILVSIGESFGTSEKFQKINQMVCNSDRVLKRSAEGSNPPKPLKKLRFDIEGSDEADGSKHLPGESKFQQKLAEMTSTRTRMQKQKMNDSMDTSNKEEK", "UniProt P54136": "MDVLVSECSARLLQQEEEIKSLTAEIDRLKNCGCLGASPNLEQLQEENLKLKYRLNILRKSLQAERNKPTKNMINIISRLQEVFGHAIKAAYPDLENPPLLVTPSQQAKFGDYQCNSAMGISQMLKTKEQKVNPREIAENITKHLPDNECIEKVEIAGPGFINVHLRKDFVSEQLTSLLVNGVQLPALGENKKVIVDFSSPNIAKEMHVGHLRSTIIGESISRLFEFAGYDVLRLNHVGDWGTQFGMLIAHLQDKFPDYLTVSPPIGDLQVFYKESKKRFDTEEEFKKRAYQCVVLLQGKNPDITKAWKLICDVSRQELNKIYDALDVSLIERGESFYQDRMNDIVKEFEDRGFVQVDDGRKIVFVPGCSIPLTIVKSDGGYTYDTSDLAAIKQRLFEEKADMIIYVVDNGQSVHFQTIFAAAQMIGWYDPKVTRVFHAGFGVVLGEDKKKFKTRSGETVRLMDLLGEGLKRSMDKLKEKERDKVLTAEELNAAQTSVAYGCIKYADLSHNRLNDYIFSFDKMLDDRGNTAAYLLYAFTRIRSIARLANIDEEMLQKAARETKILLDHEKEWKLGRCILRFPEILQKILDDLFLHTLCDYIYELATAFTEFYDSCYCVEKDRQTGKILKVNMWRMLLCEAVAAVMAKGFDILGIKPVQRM", "UniProt P43487, whole entry, looked up": "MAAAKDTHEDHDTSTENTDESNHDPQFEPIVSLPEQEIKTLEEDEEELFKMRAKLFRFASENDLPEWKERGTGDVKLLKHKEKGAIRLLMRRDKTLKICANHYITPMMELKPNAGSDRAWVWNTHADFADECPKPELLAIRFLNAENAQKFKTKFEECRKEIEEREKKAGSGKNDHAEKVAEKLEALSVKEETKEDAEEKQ"}, "source": "the supplement of paper PMC12067093", "about": "“Discovery and optimisation of a covalent ligand for TRIM25 and its application to targeted protein ubiquitination” (Chemical Science, 2025)", "compound": "CC1Cc2ccccc2N1C(=O)C1CCCN(C1)C(=O)CCl (mixture of isomers) [TRIM25 ligand 11 (diastereomer mixture)]", "test": "probe-labelled cysteine peptide fold change vs DMSO (competition) (log2 fold change); higher = less target engagement (more negative = stronger competition)", "details": "THP-1, incubation time: 4 h", "note": "The other results are listed elsewhere or left out.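 Further: competitive chemoproteomic profiling in live THP-1 cells with an iodoacetamide desthiobiotin (IA-DTB) probe, comparing probe-labelled peptide intensities in compound-treated cells against DMSO-treated controls.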"}
{"target": "RARS2_Q5T160_372_CQHVPFGVVQGMK (UniProt Q5T160)", "values": [{"measurement": "probe-labelled cysteine peptide fold change", "setting": "10 µM", "result": -0.0161}, {"measurement": "probe-labelled cysteine peptide fold change", "setting": "50 µM", "result": 0.0733}]}
{"target": "RBM12_Q9NTZ6_545_VCAHITNIPFSITK (UniProt Q9NTZ6)", "values": [{"measurement": "probe-labelled cysteine peptide fold change", "setting": "10 µM", "result": -0.0344}, {"measurement": "probe-labelled cysteine peptide fold change", "setting": "50 µM", "result": -0.113}]}
{"target": "RBM22_Q9NW64_84_NVCQTCLLDLEYGLPIQVR (UniProt Q9NW64)", "values": [{"measurement": "probe-labelled cysteine peptide fold change", "setting": "10 µM", "result": -0.548}, {"measurement": "probe-labelled cysteine peptide fold change", "setting": "50 µM", "result": 0.168}]}
{"target": "RBM19_Q9Y4C8_31_QLFAAFGTLTDCSLK (UniProt Q9Y4C8)", "values": [{"measurement": "probe-labelled cysteine peptide fold change", "setting": "10 µM", "result": 0.131}, {"measurement": "probe-labelled cysteine peptide fold change", "setting": "50 µM", "result": 0.175}]}
{"target": "RASAL2_Q9UJF2_333_EELACALVHILQSTGR (UniProt Q9UJF2)", "values": [{"measurement": "probe-labelled cysteine peptide fold change", "setting": "10 µM", "result": 0.338}, {"measurement": "probe-labelled cysteine peptide fold change", "setting": "50 µM", "result": 0.305}]}
{"target": "RANBP2_P49792_1502_CAACQNPR (UniProt P49792)", "values": [{"measurement": "probe-labelled cysteine peptide fold change", "setting": "10 µM", "result": 0.00948}, {"measurement": "probe-labelled cysteine peptide fold change", "setting": "50 µM", "result": 0.213}]}
{"target": "RCAN3_Q9UKA8_173_QSEDAMPVINYDLLCAVSK (UniProt Q9UKA8)", "values": [{"measurement": "probe-labelled cysteine peptide fold change", "setting": "10 µM", "result": -0.26}, {"measurement": "probe-labelled cysteine peptide fold change", "setting": "50 µM", "result": 0.0714}]}
{"target": "RBM4B_Q9BQ04_89_LHVGNISPTCTNQELR (UniProt Q9BQ04)", "values": [{"measurement": "probe-labelled cysteine peptide fold change", "setting": "10 µM", "result": 0.0586}, {"measurement": "probe-labelled cysteine peptide fold change", "setting": "50 µM", "result": 0.0319}]}
{"target": "RAP1GDS1_P52306_350_NDANCIHMVDNGIVEK (UniProt P52306)", "values": [{"measurement": "probe-labelled cysteine peptide fold change", "setting": "10 µM", "result": -0.0202}, {"measurement": "probe-labelled cysteine peptide fold change", "setting": "50 µM", "result": -0.0323}]}
{"target": "RANBP2_P49792_1424_KEGHWDCSICLVR (UniProt P49792)", "values": [{"measurement": "probe-labelled cysteine peptide fold change", "setting": "10 µM", "result": -0.109}, {"measurement": "probe-labelled cysteine peptide fold change", "setting": "50 µM", "result": 0.0179}]}
{"target": "RASAL2_Q9UJF2_189_YFCELCLDDTLFAR (UniProt Q9UJF2)", "values": [{"measurement": "probe-labelled cysteine peptide fold change", "setting": "10 µM", "result": 0.119}, {"measurement": "probe-labelled cysteine peptide fold change", "setting": "50 µM", "result": 0.0179}]}
{"target": "RANBP9_Q96S59_707_QPPLALAMGQATQCLGLMAR (UniProt Q96S59)", "values": [{"measurement": "probe-labelled cysteine peptide fold change", "setting": "10 µM", "result": 0.028}, {"measurement": "probe-labelled cysteine peptide fold change", "setting": "50 µM", "result": 0.00949}]}
{"target": "RCC2_Q9P258_337_DVACGANHTLVLDSQK (UniProt Q9P258)", "values": [{"measurement": "probe-labelled cysteine peptide fold change", "setting": "10 µM", "result": 0.0808}, {"measurement": "probe-labelled cysteine peptide fold change", "setting": "50 µM", "result": 0.077}]}
{"target": "RARA_P10276_130_NCIINKVTR (UniProt P10276)", "values": [{"measurement": "probe-labelled cysteine peptide fold change", "setting": "10 µM", "result": 0.119}, {"measurement": "probe-labelled cysteine peptide fold change", "setting": "50 µM", "result": 0.379}]}
{"target": "RB1_P06400_438_AVGQGCVEIGSQR (UniProt P06400)", "values": [{"measurement": "probe-labelled cysteine peptide fold change", "setting": "10 µM", "result": -0.0475}, {"measurement": "probe-labelled cysteine peptide fold change", "setting": "50 µM", "result": 0.117}]}
{"target": "RBCK1_Q9BYM8_308_ECLQGTIR (UniProt Q9BYM8)", "values": [{"measurement": "probe-labelled cysteine peptide fold change", "setting": "10 µM", "result": -0.0388}, {"measurement": "probe-labelled cysteine peptide fold change", "setting": "50 µM", "result": 0.00995}]}
{"target": "RAPGEF6_Q8TEU7_1413_HTHLDDPIAEVEPTDSEPYSCSK (UniProt Q8TEU7)", "values": [{"measurement": "probe-labelled cysteine peptide fold change", "setting": "10 µM", "result": -0.102}, {"measurement": "probe-labelled cysteine peptide fold change", "setting": "50 µM", "result": -0.184}]}
{"target": "RCCD1_A6NED2_139_LPLLPCAR (UniProt A6NED2)", "values": [{"measurement": "probe-labelled cysteine peptide fold change", "setting": "10 µM", "result": -0.281}]}
{"target": "RC3H1_Q5TC82_33_KPISLGCGHTVCK (UniProt Q5TC82)", "values": [{"measurement": "probe-labelled cysteine peptide fold change", "setting": "10 µM", "result": 0.0877}, {"measurement": "probe-labelled cysteine peptide fold change", "setting": "50 µM", "result": -0.0205}]}
{"target": "RAI1_Q7Z5J4_40_QPSQAGLSCDR (UniProt Q7Z5J4)", "values": [{"measurement": "probe-labelled cysteine peptide fold change", "setting": "10 µM", "result": -0.0619}, {"measurement": "probe-labelled cysteine peptide fold change", "setting": "50 µM", "result": -0.257}]}
{"target": "RASGRP2_Q7LDG7_11_GCTVEELLR (UniProt Q7LDG7)", "values": [{"measurement": "probe-labelled cysteine peptide fold change", "setting": "10 µM", "result": -0.0391}, {"measurement": "probe-labelled cysteine peptide fold change", "setting": "50 µM", "result": 0.207}]}
{"target": "RCL1_Q9Y2P8_13_ATQAHSLSYAGCNFLR (UniProt Q9Y2P8)", "values": [{"measurement": "probe-labelled cysteine peptide fold change", "setting": "10 µM", "result": 0.344}, {"measurement": "probe-labelled cysteine peptide fold change", "setting": "50 µM", "result": 0.223}]}
{"target": "RBKS_Q9H477_73_LGAMTSMVCK (UniProt Q9H477)", "values": [{"measurement": "probe-labelled cysteine peptide fold change", "setting": "10 µM", "result": -0.178}, {"measurement": "probe-labelled cysteine peptide fold change", "setting": "50 µM", "result": -0.156}]}
{"target": "RBBP6_Q7Z6E9_44_AADCDLQITNAQTK (UniProt Q7Z6E9)", "values": [{"measurement": "probe-labelled cysteine peptide fold change", "setting": "10 µM", "result": -0.0128}, {"measurement": "probe-labelled cysteine peptide fold change", "setting": "50 µM", "result": -0.173}]}
{"target": "RCC2_Q9P258_305_AQRIEYDCELVPR (UniProt Q9P258)", "values": [{"measurement": "probe-labelled cysteine peptide fold change", "setting": "10 µM", "result": -0.313}, {"measurement": "probe-labelled cysteine peptide fold change", "setting": "50 µM", "result": -0.0516}]}
{"target": "RAPGEF6_Q8TEU7_105_GCDCLVLEPSEMIVVENAK (UniProt Q8TEU7)", "values": [{"measurement": "probe-labelled cysteine peptide fold change", "setting": "10 µM", "result": 0.088}, {"measurement": "probe-labelled cysteine peptide fold change", "setting": "50 µM", "result": -0.116}]}
{"target": "RBCK1_Q9BYM8_411_AIHEQMNCK (UniProt Q9BYM8)", "values": [{"measurement": "probe-labelled cysteine peptide fold change", "setting": "10 µM", "result": -0.0226}, {"measurement": "probe-labelled cysteine peptide fold change", "setting": "50 µM", "result": -0.0756}]}
{"target": "RBM42_Q9BTD8_385_IFCGDLGNEVNDDILAR (UniProt Q9BTD8)", "values": [{"measurement": "probe-labelled cysteine peptide fold change", "setting": "10 µM", "result": 0.0949}, {"measurement": "probe-labelled cysteine peptide fold change", "setting": "50 µM", "result": 0.0534}]}
{"target": "RARS_P54136_32_NCGCLGASPNLEQLQEENLK (UniProt P54136)", "values": [{"measurement": "probe-labelled cysteine peptide fold change", "setting": "10 µM", "result": -0.00374}, {"measurement": "probe-labelled cysteine peptide fold change", "setting": "50 µM", "result": -0.0785}]}
{"target": "RBM22_Q9NW64_74_TEVCQTCSK (UniProt Q9NW64)", "values": [{"measurement": "probe-labelled cysteine peptide fold change", "setting": "10 µM", "result": -0.0386}, {"measurement": "probe-labelled cysteine peptide fold change", "setting": "50 µM", "result": -0.0803}]}
{"target": "RCHY1_Q96PM5_136_CIENVSR (UniProt Q96PM5)", "values": [{"measurement": "probe-labelled cysteine peptide fold change", "setting": "10 µM", "result": -0.00217}, {"measurement": "probe-labelled cysteine peptide fold change", "setting": "50 µM", "result": -0.135}]}
{"target": "RASSF4_Q9H2L5_145_SDASCMSQR (UniProt Q9H2L5)", "values": [{"measurement": "probe-labelled cysteine peptide fold change", "setting": "10 µM", "result": -0.0458}, {"measurement": "probe-labelled cysteine peptide fold change", "setting": "50 µM", "result": 0.0314}]}
{"target": "RBM15B_Q8NDT2_323_GRPYGYPAVCEEDLMPEDDQR (UniProt Q8NDT2)", "values": [{"measurement": "probe-labelled cysteine peptide fold change", "setting": "10 µM", "result": -0.102}, {"measurement": "probe-labelled cysteine peptide fold change", "setting": "50 µM", "result": -0.177}]}
{"target": "RBBP7_Q16576_277_PSHLVDAHTAEVNCLSFNPYSEFILATGSADK (UniProt Q16576)", "values": [{"measurement": "probe-labelled cysteine peptide fold change", "setting": "10 µM", "result": 0.218}, {"measurement": "probe-labelled cysteine peptide fold change", "setting": "50 µM", "result": 0.301}]}
{"target": "RBM10_P98175_222_CGVQNFK (UniProt P98175)", "values": [{"measurement": "probe-labelled cysteine peptide fold change", "setting": "10 µM", "result": -0.0501}, {"measurement": "probe-labelled cysteine peptide fold change", "setting": "50 µM", "result": 0.0541}]}
{"target": "RANBP1_P43487_99_ICANHYITPMMELK (UniProt P43487)", "values": [{"measurement": "probe-labelled cysteine peptide fold change", "setting": "10 µM", "result": 0.143}, {"measurement": "probe-labelled cysteine peptide fold change", "setting": "50 µM", "result": 0.123}]}
{"target": "RARS_P54136_34_NCGCLGASPNLEQLQEENLK (UniProt P54136)", "values": [{"measurement": "probe-labelled cysteine peptide fold change", "setting": "10 µM", "result": -0.36}, {"measurement": "probe-labelled cysteine peptide fold change", "setting": "50 µM", "result": -0.206}]}
{"target": "RAP1A_P62834_118_DTEDVPMILVGNKCDLEDERVVGK (UniProt P62834)", "values": [{"measurement": "probe-labelled cysteine peptide fold change", "setting": "10 µM", "result": -0.603}, {"measurement": "probe-labelled cysteine peptide fold change", "setting": "50 µM", "result": -0.364}]}
{"target": "RBM22_Q9NW64_269_QQCAFIQFATR (UniProt Q9NW64)", "values": [{"measurement": "probe-labelled cysteine peptide fold change", "setting": "10 µM", "result": 0.178}, {"measurement": "probe-labelled cysteine peptide fold change", "setting": "50 µM", "result": 0.214}]}
{"target": "RBM25_P49756_132_LQAFGFCEYKEPESTLR (UniProt P49756)", "values": [{"measurement": "probe-labelled cysteine peptide fold change", "setting": "10 µM", "result": -0.119}, {"measurement": "probe-labelled cysteine peptide fold change", "setting": "50 µM", "result": 0.0678}]}
{"target": "RANBP2_P49792_707_AEDIENDALSPEEQEECK (UniProt P49792)", "values": [{"measurement": "probe-labelled cysteine peptide fold change", "setting": "10 µM", "result": 0.0213}, {"measurement": "probe-labelled cysteine peptide fold change", "setting": "50 µM", "result": 0.0682}]}
{"target": "RAP1GDS1_P52306_560+567_YNSMVLICALMGSECLHK (UniProt P52306)", "values": [{"measurement": "probe-labelled cysteine peptide fold change", "setting": "10 µM", "result": -0.119}, {"measurement": "probe-labelled cysteine peptide fold change", "setting": "50 µM", "result": -0.182}]}
{"target": "RB1_P06400_283_EHECNIDEVK (UniProt P06400)", "values": [{"measurement": "probe-labelled cysteine peptide fold change", "setting": "10 µM", "result": -0.00825}, {"measurement": "probe-labelled cysteine peptide fold change", "setting": "50 µM", "result": 0.0246}]}
